This sample is rich in variants without activity.

The labels stand for the following.
B1: tRNA (parent)
chain: GUUCCGUUGGCGUAAUGGUAACGCGUCUCCCUCCUAAGGAGAAGACUGCGGGUUCGAGUCCCGUACGGAACG

The data set covers variants of B1. Nature of the data set: yeast fitness relative to wild type (ratio to wild type); higher = fitter; tRNA-Arg(CCU), competitive growth, 37 C, YPD. A digest of the protocol:
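Changes in genotype frequencies gave Darwinian fitness relative to wild type. Frequencies were read by 100-nucleotide paired-end sequencing of gene amplicons before and after pooled Saccharomyces cerevisiae strains, carrying tRNA-Arg(CCU) gene variants at the native locus, were competed in YPD at 37°C for 24 hours in six replicates. A genotype was kept only with ≥ 100 starting reads, and estimates < 0.5 were set to 0.5.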
Take GUUCCGUUGGCGUAAUGGUAUCGCGUCUCGCCCCUAAGGAGAAGACUGCGGGAUCGGGUCCCGUACGGAACG [A21U C30G U32C U53A A57G]: the yeast fitness is at most 0.5.
Regarding GUUCCGCUGGCGUAAUGGUAACGCGUCACCUUCCUAAGGAGAAGACUGCGGGUUCGAGUCCCGUACGGAACG [U7C U28A C31U], the yeast fitness was at most 0.5.
Regarding GUUCCGUUGGCGUAAUGGUAACGCGUCUCUCUCCUAAGGAGGAGCCUGCGGGUUCGAGUCCCGUACGGAACG [C30U A42G A45C], the yeast fitness was at most 0.5.
In the case of GUUCCGUUGGCGUAAUGGUAACGCCUCUCCCUCCUAAGGAGGAGACUGCGGGUUCGAGUCCCGUACGGCGCG [G25C A42G A69C A70G], the yeast fitness is at most 0.5.
The same measure for GUUCCGUUGGAGUGAUGGGAACGCGUCUCCCUCCUAAGGAGAUGACUGCGGGAUCGAGUCCCGUAUGGAACG [C11A A14G U19G A43U U53A C66U]: at most 0.5; for GUUCCCUUGGCGUAAUGGUAACGCGUCUCCCUCCUAAGGAGAAGACUGCGGCUUCGAGUCCCGUGCGGAACG [G6C G52C A65G]: at most 0.5.
Turning to GUUCCGUUGGCGUAAUGGUAACGCGUCUCCCUCCUAAGGAGAGGGCUGCGGGUUUGAGUCCCGUACGAAACG [A43G A45G C55U G68A], the yeast fitness was at most 0.5.
With GUUCCGUUGGCGUAAUGGUAUCGCGUCUCCCUCCUAUGGAGAAGACUGCGGGUUCGAGUGCCGUACGGAACG [A21U A37U C60G], the yeast fitness was determined as 0.608.
The same measure for GUUCCGUUUGAGUAAUGGUAACGGGUCUCGCUCCUAAGGAGAAGACUGCGGGUUCGAGUCCCGUACGGAACG [G9U C11A C24G C30G]: at most 0.5; for GUUCCGUUGGCGUAUUGGUAACGCGUCUCCCUCAUAAGCCGAAGACUGCGGGUUCCAGUCCCGUACGGAACG [A15U C34A G39C A40C G56C]: at most 0.5.
With GUUCCGUUGGCGUGAUGGUAACGCGUCUCCCUCCUAAAGAGAAGACUGCGGGUUCGAGUCCCGUACGGAACG [A14G G38A], the yeast fitness came out at 0.799.
Take GUUCCGUUGGCGUAAUGGUAACGCGUCUGCCUCCAAAGGAGAAGACUGCGGGUUCGAGUCUCGUACGGAACG [C29G U35A C61U]: the yeast fitness was at most 0.5.
For the variant GUUCCGUUGGCGUGAUAGUAACACGUCGCCCUCCUAAGGAGAAGCCUGCGGGUUCGAGUCCCGUACGGAACG [A14G G17A G23A U28G A45C], the yeast fitness is at most 0.5.
For GUUCUGUUGGCGUAAUGGUAUCGCGUCUCCCUCCUAAGGAGAAGACUGCGGGUUCCAGUCCCGUACGGAACG [C5U A21U G56C], the yeast fitness is at most 0.5.
The same measure for GUUCCGUUGGCGUAAUGGUAUCGCGUCUCCCUCCAAAGGAGAAGACUGCGGGUUCGAGUCUCGUACGGAACG [A21U U35A C61U]: at most 0.5; for GUUCCGUUGGAGUAAUGGUAACGCGUAUCCCUCCUAAGGAGAAGACUGCAGGUUCGAGUCCUAUACGGAACG [C11A C27A G50A C62U G63A]: at most 0.5; for GUUCCGUUGGCCUAAUGGUAACGCGGUUCGCUCCUAAGGAGAAGACUGCGGGUUCGAGUCCCGUACGGAACG [G12C U26G C27U C30G]: at most 0.5.
On to GUUCCGUUGGCGUAAUGGUAACGCGUCUCCCUCCUACGGAGAAGAGUGCGGGUUCGAGUCCCGUACGGACCG [A37C C46G A70C], for which the yeast fitness was found to be 0.632.
Turning to GUUCCGUUGGCGUAAUCGUAUCGCGUCUCCCUCCUAAGGAGAAGCCUGCGGGUUCGAGUCACGUACAGAACG [G17C A21U A45C C61A G67A], the yeast fitness was at most 0.5.
In the case of GUUCUGUAGGCGUAAUGCUAACGCGUCUCCCUCCUAAGGAGAAGAUUGCGAGUUCGAGUCCCGUAUGGAACG [C5U U8A G18C C46U G51A C66U], the yeast fitness was at most 0.5.
With GCUCCGUUGGCGUCACGGUAACGCGUCUCCCUCCUAAGGAGAAGAGUGCGGGUUCGCGCCCCGUACGGAACG [U2C A14C U16C C46G A57C U59C], the yeast fitness is at most 0.5.
For the variant GUUCCGUUGGCGUAAUGGUAACGCGUCUCCCCCCUAAGGAGAAGACUGCGGAUUCGAGUCCCGUUCGGAACG [U32C G52A A65U], the yeast fitness was at most 0.5.
Take GUCCCGUUGGCGUAAUGGUAACGCGUCUCGUUCCUAAGGAGAAGACUGCGGGUUCGGGUGGCGUACGGAACG [U3C C30G C31U A57G C60G C61G]: the yeast fitness is at most 0.5.
Regarding GUUCAGUUGGCGUAAUGGUAACGCGUCUCCCUCCUAAGGAGAAGACUGCGGAUUCGACUCCCGUACGGAACG [C5A G52A G58C], the yeast fitness is at most 0.5.
The same measure for GUUCCGUUCGCGUAAUAGUAACGCGUCUCCCUCCUAGGGAGAAGACUGCGGGUUCGAGUCCCGUACGAAACG [G9C G17A A37G G68A]: at most 0.5.
For GUUCCGUUGGCGUAAAGGUAACGCGUCUCCCCCUUAAGGAGAAGACUGCGGGUUCGAGUCCCGUACGGAACG [U16A U32C C34U], the yeast fitness was at most 0.5.
The same measure for GUUCCGUUGGCGUAAUGGUAACGCGUCUCCCCCCUAAGGAGAAGACUGCGGGUUCGAGUCCCGUACGCAUCG [U32C G68C A70U]: at most 0.5.
On to GUUCCGUUGGCGUAAUGGUAAUGCGUCUCCCUCCUGAGGAGAAGACUGCGGGUUCGAGUCACGUAUGGAACG [C22U A36G C61A C66U], for which the yeast fitness is at most 0.5.
Consider GUUCCGUUGGCGUAAUGAUAUCGCGUCUCCCUCUUAAGGAGAAGACUGCGGGUUCGAGUCCCGUACGGAACG [G18A A21U C34U], for which the yeast fitness is at most 0.5.
In the case of GUUCCGUUGGCAUAAUGGUAACGCGUCUCCCUCCUAAGGAGCAGACGGUGGGUUCGAGUCCCGUACGGAACG [G12A A42C U47G C49U], the yeast fitness was at most 0.5.
With GUUCAGUUGGAGUAAUGGUAACGCGUCUCCCUCCUAAGGAGAAGACUGCGGGUUCGAGUCCCGUACGGAACG [C5A C11A] the figure was 0.592.
Consider GUUCCGUUGGCGUAAUGGUAACGAGUCUCCCUCCUAAGGGGAAGACUGCGGGUUCGAGUCCCGUAGGGAACG [C24A A40G C66G], for which the yeast fitness was at most 0.5.
GUUCAGUUGGCGUAAUGGUAACGCGUCUGCCUCCUAAGGAGAGGACUGCGGGUUCGAGUCCCGUACGGAACG [C5A C29G A43G]: the yeast fitness is at most 0.5.
With GUUCGGGUGGCGAAAUGGUAACGCGUCUCCCUGCUAAGGAGAAGACUGCGGGUUCGCGUCCCGUACGGAACG [C5G U7G U13A C33G A57C] the figure was at most 0.5; with GUUCGGUUGGCGUAAUGGCAACGCGUCUCCCUCCUACGGAGAAGCUUGCGGGUUGGAGUCCCGUACGGAACG [C5G U19C A37C A45C C46U C55G], at most 0.5; with GUUCCGUUGGCCUAAUGGUAACGCGUUUCCCUCCUAAGGAGAAGACUGCAGGUUCGAGUCCCGUACGGAACG [G12C C27U G50A], at most 0.5.
On to GUUCCGUUGGCGUAAUGGUAACGCGUCUCCCUCCUAUGGAGAAGACAGCGGGUUCGAGUCCCGUACCGAACG [A37U U47A G67C], for which the yeast fitness is at most 0.5.

Values taken from the RNAGym collection of RNA variant scans (doi:10.1126/science.aae0568).
